Measurements taken from US11718645B2 (University of Florida Research Foundation, Incorporated, priority 2014, dated 2023).

Assay: general procedure: solution-phase peptide synthesis; PyAOP (BG, BI, BJ); DEPBT (BH)
Details: cyclisation step

Apratoxin S7
cyclisation yield (in 3 steps from precursor BH): 25% in 3 steps

Apratoxin S8
cyclisation yield (in 3 steps from precursor BI): 70% in 3 steps

Apratoxin S4
cyclisation yield (in 3 steps from precursor BG): 60% in 3 steps

Apratoxin S9
cyclisation yield (in 3 steps from precursor BJ): 45% in 3 steps
